# According to PMC11337767:
# Protein sequences, listed by entry. Tags and fused reporters are not part of them.
# UniProt Q86UL8: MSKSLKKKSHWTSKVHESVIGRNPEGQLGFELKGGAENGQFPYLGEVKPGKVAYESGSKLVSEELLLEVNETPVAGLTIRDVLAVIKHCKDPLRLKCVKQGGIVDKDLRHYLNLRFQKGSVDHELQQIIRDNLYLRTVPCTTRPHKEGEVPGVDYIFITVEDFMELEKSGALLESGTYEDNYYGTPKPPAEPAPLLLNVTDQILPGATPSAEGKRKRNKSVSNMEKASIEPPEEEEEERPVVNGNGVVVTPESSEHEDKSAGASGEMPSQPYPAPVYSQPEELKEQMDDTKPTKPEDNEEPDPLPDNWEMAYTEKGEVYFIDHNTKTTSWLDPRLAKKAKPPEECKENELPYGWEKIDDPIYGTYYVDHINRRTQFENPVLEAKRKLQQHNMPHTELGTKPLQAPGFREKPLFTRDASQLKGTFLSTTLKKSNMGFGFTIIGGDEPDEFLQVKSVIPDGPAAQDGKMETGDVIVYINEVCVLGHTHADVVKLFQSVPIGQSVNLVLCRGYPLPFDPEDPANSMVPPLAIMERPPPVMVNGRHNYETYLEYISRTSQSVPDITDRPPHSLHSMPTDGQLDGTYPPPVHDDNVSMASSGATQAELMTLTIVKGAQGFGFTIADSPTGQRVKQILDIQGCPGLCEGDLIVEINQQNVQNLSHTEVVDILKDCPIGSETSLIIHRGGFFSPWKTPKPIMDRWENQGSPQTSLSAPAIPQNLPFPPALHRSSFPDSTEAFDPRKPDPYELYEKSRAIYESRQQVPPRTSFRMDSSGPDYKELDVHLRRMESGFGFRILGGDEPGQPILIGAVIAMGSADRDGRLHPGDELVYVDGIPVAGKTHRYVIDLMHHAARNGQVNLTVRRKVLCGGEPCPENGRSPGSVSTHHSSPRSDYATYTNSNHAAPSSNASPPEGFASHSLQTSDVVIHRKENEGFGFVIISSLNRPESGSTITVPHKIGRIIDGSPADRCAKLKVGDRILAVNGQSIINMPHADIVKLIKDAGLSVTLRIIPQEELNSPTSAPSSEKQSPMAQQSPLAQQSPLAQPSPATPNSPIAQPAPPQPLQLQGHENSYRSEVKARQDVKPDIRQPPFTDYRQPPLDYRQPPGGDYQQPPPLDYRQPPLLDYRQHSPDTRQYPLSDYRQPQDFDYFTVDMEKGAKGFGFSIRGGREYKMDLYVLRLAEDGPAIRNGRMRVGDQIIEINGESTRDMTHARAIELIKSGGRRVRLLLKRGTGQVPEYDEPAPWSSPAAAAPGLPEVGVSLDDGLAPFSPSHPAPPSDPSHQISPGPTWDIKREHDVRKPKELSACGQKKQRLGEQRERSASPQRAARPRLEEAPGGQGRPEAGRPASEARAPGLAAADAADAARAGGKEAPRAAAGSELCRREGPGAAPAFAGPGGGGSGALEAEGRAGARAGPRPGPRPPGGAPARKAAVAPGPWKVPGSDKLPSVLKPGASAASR
# UniProt Q13887: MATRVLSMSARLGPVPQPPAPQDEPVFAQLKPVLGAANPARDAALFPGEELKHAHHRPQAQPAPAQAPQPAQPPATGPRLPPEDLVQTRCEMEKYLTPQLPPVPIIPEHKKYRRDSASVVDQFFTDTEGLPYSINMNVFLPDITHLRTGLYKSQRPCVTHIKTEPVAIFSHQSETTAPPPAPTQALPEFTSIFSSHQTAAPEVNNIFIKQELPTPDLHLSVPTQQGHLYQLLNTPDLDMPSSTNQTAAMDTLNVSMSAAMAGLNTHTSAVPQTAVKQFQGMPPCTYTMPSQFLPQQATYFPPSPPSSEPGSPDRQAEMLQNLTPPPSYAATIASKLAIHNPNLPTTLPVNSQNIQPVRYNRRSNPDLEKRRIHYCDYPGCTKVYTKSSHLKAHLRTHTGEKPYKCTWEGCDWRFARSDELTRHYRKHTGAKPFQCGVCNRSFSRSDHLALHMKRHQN
# No constants are given. Whether binding was seen depends on the method and setting. In cells and extracts the contact can be indirect. Some binding calls cover weakened binding; strength is not graded here. For some assays here: Sequences can lack the tags named with a protein.
# Key:
# [1] = biological target: T1, GFP-fused CLDN6 (UniProt P56747); test: co-IP; MDA-MB-231/CLDN6 cells and MDA-MB-231/CLDN6^δPBM cells
# T1 sequence: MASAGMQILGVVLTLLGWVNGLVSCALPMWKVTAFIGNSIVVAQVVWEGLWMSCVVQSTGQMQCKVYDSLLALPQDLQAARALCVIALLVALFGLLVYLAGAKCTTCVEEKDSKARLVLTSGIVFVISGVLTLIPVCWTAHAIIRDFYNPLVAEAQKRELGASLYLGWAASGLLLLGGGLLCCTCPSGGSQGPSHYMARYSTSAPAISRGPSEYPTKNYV
# [2] = biological target: MAGI2 (human (endogenous in MDA-MB-231)) (UniProt Q86UL8); test: as above
binding [1],binding [2],Substance
binds,,MAGI2 (from UniProt Q86UL8 1-1455)
,binds,KLF5 (from UniProt Q13887 1-457)
